Test results: doi:10.1101/2025.02.27.640518
No constants are given. Whether binding was seen depends on the method and setting. A result given as binding can be weak or reduced; the word gives no strength. Sequences can lack the tags named with a protein. For part of these data: In cells and extracts the contact can be indirect.

Legend:
[1] = target: T1, Arabidopsis eIF(iso)4E (yeast two-hybrid fusion) (Arabidopsis) (UniProt O04663); assay: two-hybrid
T1 sequence: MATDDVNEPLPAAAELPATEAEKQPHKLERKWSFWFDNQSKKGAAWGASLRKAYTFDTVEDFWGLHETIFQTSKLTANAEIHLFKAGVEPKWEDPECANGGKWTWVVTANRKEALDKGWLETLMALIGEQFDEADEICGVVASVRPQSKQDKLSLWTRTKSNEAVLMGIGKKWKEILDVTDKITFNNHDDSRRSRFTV

[2] = target: TuMV 6xHis-VPg-6xHIS-3xFLAG (turnip mosaic virus (TuMV)); assay: co-IP

TuMV VPg (yeast two-hybrid fusion) (turnip mosaic virus (TuMV))
binding [1]: binds

B1: YFP-eIF(iso)4E (Arabidopsis) (protein, UniProt O04663 1-198)
chain: MATDDVNEPLPAAAELPATEAEKQPHKLERKWSFWFDNQSKKGAAWGASLRKAYTFDTVEDFWGLHETIFQTSKLTANAEIHLFKAGVEPKWEDPECANGGKWTWVVTANRKEALDKGWLETLMALIGEQFDEADEICGVVASVRPQSKQDKLSLWTRTKSNEAVLMGIGKKWKEILDVTDKITFNNHDDSRRSRFTV
binding [2]: binds

B2: YFP-eIF(iso)4E^W92L/K149E (Arabidopsis) (protein, UniProt O04663 1-198)
chain: MATDDVNEPLPAAAELPATEAEKQPHKLERKWSFWFDNQSKKGAAWGASLRKAYTFDTVEDFWGLHETIFQTSKLTANAEIHLFKAGVEPKLEDPECANGGKWTWVVTANRKEALDKGWLETLMALIGEQFDEADEICGVVASVRPQSEQDKLSLWTRTKSNEAVLMGIGKKWKEILDVTDKITFNNHDDSRRSRFTV
binding [2]: no binding
